{"source": "PubChem BioAssay AID1224826 (NIAID, 2016)", "test": "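Genes that change LPS-induced Tnf promoter activity in mouse macrophages when knocked down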 (primary screen)", "cells": "RAW264.7 G9 macrophages from mouse bearing reporters for p65 (GFP) and the Tnf promoter (mCherry)", "knock-down reagent": "siRNA pool against mouse genes, 100 nM", "timing": "16 h of LPS stimulation, after 2 days of siRNA transfection", "treatment": "bacterial lipopolysaccharide (Salmonella minnesota R595), 10 ng/ml", "detection": "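Nuclear mCherry signal of the Tnf promoter reporter measured by imaging after background removal, scaled to each plate median and turned into robust z-scores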", "scale": "Tnf reporter robust z-score: higher = stronger Tnf promoter reporter signal after LPS", "rule for the call": "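Called active when robust z-score is at most -1.3, matching the median of the Tlr4 knock-down control, or over 3; control wells and wells with under 50 cells never active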", "meaning of the calls": "active = Tnf reporter clearly lowered or raised; inactive = no clear change in Tnf reporter", "note": "This is one part, drawn at random, of about 17,000 reagents. In the full data, about 1,110 (6.6%) got an active call. 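Active means lowered or raised reporter signal; replicate intensities are raw and not normalised per plate.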 Further read-outs or replicates are left out here."}
{"gene": "Dpagt1", "Tnf reporter robust z-score": 0.65, "fewer than 50 cells in well": "enough cells in well", "activity call": "inactive"}
{"gene": "Asgr2", "Tnf reporter robust z-score": -0.2, "fewer than 50 cells in well": "enough cells in well", "activity call": "inactive"}
{"gene": "Mgat4f", "fewer than 50 cells in well": "fewer than 50 cells per well; well left out of calls", "activity call": "inactive"}
{"gene": "Hbb-b1", "Tnf reporter robust z-score": 1.71, "fewer than 50 cells in well": "enough cells in well", "activity call": "inactive"}
{"gene": "Ankrd34b", "Tnf reporter robust z-score": 0.7, "fewer than 50 cells in well": "enough cells in well", "activity call": "inactive"}
{"gene": "Plekhg3", "Tnf reporter robust z-score": -1.16, "fewer than 50 cells in well": "enough cells in well", "activity call": "inactive"}
{"gene": "Gm10283", "Tnf reporter robust z-score": -1, "fewer than 50 cells in well": "enough cells in well", "activity call": "inactive"}
{"gene": "Tuba3b", "Tnf reporter robust z-score": -0.4, "fewer than 50 cells in well": "enough cells in well", "activity call": "inactive"}
{"gene": "Chrng", "Tnf reporter robust z-score": -0.85, "fewer than 50 cells in well": "enough cells in well", "activity call": "inactive"}
{"gene": "Nat10", "Tnf reporter robust z-score": 1.5, "fewer than 50 cells in well": "enough cells in well", "activity call": "inactive"}
{"gene": "Slc7a9", "Tnf reporter robust z-score": -0.07, "fewer than 50 cells in well": "enough cells in well", "activity call": "inactive"}
{"gene": "Asb11", "Tnf reporter robust z-score": -0.85, "fewer than 50 cells in well": "enough cells in well", "activity call": "inactive"}
{"gene": "Snrnp27", "Tnf reporter robust z-score": -1.47, "fewer than 50 cells in well": "enough cells in well", "activity call": "active"}
{"gene": "Hspa1a", "Tnf reporter robust z-score": -0.12, "fewer than 50 cells in well": "enough cells in well", "activity call": "inactive"}
{"gene": "Ceacam19", "Tnf reporter robust z-score": -0.2, "fewer than 50 cells in well": "enough cells in well", "activity call": "inactive"}
{"gene": "Vat1", "Tnf reporter robust z-score": -0.83, "fewer than 50 cells in well": "enough cells in well", "activity call": "inactive"}
{"gene": "Sidt1", "Tnf reporter robust z-score": -0.04, "fewer than 50 cells in well": "enough cells in well", "activity call": "inactive"}
{"gene": "Invs", "Tnf reporter robust z-score": -0.47, "fewer than 50 cells in well": "enough cells in well", "activity call": "inactive"}
{"gene": "Pex19", "Tnf reporter robust z-score": -0.64, "fewer than 50 cells in well": "enough cells in well", "activity call": "inactive"}
{"gene": "1700128F08Rik", "Tnf reporter robust z-score": -1.36, "fewer than 50 cells in well": "enough cells in well", "activity call": "active"}
{"gene": "Nat8", "Tnf reporter robust z-score": -1.17, "fewer than 50 cells in well": "enough cells in well", "activity call": "inactive"}
